In doi:10.1101/068262 (bioRxiv, 2016):
These are yes or no findings as the source states them, for the method shown. In cells and extracts the contact can be indirect. Some results given as binding are weak or reduced against the parent protein; the word gives no strength.

Sequences of proteins named here, by UniProt entry; tags and fusion partners are left off.
UniProt O00472: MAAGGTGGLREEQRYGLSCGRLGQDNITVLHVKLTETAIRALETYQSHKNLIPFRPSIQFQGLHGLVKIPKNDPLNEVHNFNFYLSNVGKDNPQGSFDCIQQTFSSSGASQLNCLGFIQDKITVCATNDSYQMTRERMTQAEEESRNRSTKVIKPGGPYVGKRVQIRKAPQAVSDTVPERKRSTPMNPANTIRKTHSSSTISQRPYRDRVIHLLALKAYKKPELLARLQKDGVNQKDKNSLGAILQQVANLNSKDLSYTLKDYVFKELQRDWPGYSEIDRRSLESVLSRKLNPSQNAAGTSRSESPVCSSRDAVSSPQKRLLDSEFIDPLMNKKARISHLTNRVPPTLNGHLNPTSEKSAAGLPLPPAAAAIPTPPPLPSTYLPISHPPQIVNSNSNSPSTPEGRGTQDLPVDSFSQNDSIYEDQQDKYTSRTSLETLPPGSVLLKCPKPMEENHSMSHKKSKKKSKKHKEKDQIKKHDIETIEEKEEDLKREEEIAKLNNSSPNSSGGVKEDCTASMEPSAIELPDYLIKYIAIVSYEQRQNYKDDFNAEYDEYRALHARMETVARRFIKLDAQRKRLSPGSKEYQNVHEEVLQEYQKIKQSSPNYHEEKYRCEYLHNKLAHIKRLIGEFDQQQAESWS

Molecular target: HA-tagged wild-type ELL2 (human) (UniProt O00472)
Experiment: co-IP

binding: binds
B1: AFF1 in nuclear extracts (protein, UniProt P51825 1-1210)
chain: MAAQSSLYNDDRNLLRIREKERRNQEAHQEKEAFPEKIPLFGEPYKTAKGDELSSRIQNMLGNYEEVKEFLSTKSHTHRLDASENRLGKPKYPLIPDKGSSIPSSSFHTSVHHQSIHTPASGPLSVGNISHNPKMAQPRTEPMPSLHAKSCGPPDSQHLTQDRLGQEGFGSSHHKKGDRRADGDHCASVTDSAPERELSPLISLPSPVPPLSPIHSNQQTLPRTQGSSKVHGSSNNSKGYCPAKSPKDLAVKVHDKETPQDSLVAPAQPPSQTFPPPSLPSKSVAMQQKPTAYVRPMDGQDQAPSESPELKPLPEDYRQQTFEKTDLKVPAKAKLTKLKMPSQSVEQTYSNEVHCVEEILKEMTHSWPPPLTAIHTPSTAEPSKFPFPTKDSQHVSSVTQNQKQYDTSSKTHSNSQQGTSSMLEDDLQLSDSEDSDSEQTPEKPPSSSAPPSAPQSLPEPVASAHSSSAESESTSDSDSSSDSESESSSSDSEENEPLETPAPEPEPPTTNKWQLDNWLTKVSQPAAPPEGPRSTEPPRRHPESKGSSDSATSQEHSESKDPPPKSSSKAPRAPPEAPHPGKRSCQKSPAQQEPPQRQTVGTKQPKKPVKASARAGSRTSLQGEREPGLLPYGSRDQTSKDKPKVKTKGRPRAAASNEPKPAVPPSSEKKKHKSSLPAPSKALSGPEPAKDNVEDRTPEHFALVPLTESQGPPHSGSGSRTSGCRQAVVVQEDSRKDRLPLPLRDTKLLSPLRDTPPPQSLMVKITLDLLSRIPQPPGKGSRQRKAEDKQPPAGKKHSSEKRSSDSSSKLAKKRKGEAERDCDNKKIRLEKEIKSQSSSSSSSHKESSKTKPSRPSSQSSKKEMLPPPPVSSSSQKPAKPALKRSRREADTCGQDPPKSASSTKSNHKDSSIPKQRRVEGKGSRSSSEHKGSSGDTANPFPVPSLPNGNSKPGKPQVKFDKQQADLHMREAKKMKQKAELMTDRVGKAFKYLEAVLSFIECGIATESESQSSKSAYSVYSETVDLIKFIMSLKSFSDATAPTQEKIFAVLCMRCQSILNMAMFRCKKDIAIKYSRTLNKHFESSSKVAQAPSPCIASTGTPSPLSPMPSPASSVGSQSSAGSVGSSGVAATISTPVTIQNMTSSYVTITSHVLTAFDLWEQAEALTRKNKEFFARLSTNVCTLALNSSLVDLVHYTRQGFQQLQELTKTP
